Results taken from the supplement of paper PMC10849652.
The other results are listed elsewhere or left out.

The chains behind the UniProt entries cited, without tags or fusion partners. Where a name states a change or a piece, a line headed by the entry shows the natural chain unless it says otherwise.
UniProt Q9HC16: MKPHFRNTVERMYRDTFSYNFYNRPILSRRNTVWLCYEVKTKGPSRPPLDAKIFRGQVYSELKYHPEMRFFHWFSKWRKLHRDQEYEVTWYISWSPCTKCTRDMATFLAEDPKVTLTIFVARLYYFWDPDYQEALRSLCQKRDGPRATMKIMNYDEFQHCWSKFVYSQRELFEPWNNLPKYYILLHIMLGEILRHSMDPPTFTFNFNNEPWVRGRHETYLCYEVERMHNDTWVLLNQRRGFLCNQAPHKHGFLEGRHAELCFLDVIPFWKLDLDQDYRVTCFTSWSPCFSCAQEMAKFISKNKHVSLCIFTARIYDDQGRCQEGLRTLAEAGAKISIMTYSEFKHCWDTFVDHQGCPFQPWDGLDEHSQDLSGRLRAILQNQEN
UniProt P15144: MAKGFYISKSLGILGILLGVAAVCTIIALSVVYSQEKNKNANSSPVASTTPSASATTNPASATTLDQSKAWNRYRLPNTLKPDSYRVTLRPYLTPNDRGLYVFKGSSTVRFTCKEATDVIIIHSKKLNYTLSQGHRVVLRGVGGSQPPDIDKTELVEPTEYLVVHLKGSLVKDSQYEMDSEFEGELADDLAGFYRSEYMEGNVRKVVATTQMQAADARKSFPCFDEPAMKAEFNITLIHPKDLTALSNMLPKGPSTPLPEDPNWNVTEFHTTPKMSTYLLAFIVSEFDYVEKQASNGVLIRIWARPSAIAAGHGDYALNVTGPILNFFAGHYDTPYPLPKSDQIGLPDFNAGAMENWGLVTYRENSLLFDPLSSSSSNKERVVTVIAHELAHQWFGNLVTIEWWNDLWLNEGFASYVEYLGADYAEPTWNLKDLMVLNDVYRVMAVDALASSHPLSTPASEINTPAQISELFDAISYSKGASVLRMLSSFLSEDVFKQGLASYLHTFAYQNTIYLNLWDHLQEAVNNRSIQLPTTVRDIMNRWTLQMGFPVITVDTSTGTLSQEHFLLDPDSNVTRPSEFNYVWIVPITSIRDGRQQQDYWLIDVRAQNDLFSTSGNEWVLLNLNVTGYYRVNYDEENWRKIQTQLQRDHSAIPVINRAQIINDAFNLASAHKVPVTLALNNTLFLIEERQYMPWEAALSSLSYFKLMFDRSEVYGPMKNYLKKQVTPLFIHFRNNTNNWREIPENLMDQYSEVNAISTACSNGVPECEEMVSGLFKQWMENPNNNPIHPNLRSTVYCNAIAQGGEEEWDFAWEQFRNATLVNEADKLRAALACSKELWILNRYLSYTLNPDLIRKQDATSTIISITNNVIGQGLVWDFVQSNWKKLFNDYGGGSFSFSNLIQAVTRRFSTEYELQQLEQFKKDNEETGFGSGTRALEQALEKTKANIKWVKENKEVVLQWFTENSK
UniProt Q7Z5H3: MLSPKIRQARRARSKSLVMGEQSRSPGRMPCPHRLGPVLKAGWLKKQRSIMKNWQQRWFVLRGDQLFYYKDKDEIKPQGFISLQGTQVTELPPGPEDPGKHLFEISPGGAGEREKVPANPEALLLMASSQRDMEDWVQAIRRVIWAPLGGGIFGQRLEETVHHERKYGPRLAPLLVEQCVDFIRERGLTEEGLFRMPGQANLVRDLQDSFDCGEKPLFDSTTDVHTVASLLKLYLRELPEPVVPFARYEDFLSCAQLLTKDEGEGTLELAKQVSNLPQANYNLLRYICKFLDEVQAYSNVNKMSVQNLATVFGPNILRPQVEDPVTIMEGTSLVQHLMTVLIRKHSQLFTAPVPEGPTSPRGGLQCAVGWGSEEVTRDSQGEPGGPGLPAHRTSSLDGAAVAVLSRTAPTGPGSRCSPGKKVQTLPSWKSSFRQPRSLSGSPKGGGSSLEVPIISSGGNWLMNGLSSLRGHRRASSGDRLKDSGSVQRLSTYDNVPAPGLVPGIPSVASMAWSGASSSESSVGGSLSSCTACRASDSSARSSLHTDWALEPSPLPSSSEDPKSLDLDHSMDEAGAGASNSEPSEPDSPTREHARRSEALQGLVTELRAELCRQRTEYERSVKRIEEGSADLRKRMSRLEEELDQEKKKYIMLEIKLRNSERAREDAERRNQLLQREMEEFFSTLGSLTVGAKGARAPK
UniProt Q8IUX4: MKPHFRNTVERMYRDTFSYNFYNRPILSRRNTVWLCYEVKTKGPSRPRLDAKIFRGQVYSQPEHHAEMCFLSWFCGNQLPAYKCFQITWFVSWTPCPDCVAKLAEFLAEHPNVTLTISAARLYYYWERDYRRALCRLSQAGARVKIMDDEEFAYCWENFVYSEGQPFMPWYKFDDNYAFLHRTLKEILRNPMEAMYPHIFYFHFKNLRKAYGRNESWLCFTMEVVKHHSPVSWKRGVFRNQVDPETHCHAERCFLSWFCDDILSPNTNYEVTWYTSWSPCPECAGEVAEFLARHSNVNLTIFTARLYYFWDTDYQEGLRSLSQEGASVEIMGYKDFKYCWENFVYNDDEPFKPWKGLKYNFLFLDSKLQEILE
UniProt P05067, whole entry, looked up: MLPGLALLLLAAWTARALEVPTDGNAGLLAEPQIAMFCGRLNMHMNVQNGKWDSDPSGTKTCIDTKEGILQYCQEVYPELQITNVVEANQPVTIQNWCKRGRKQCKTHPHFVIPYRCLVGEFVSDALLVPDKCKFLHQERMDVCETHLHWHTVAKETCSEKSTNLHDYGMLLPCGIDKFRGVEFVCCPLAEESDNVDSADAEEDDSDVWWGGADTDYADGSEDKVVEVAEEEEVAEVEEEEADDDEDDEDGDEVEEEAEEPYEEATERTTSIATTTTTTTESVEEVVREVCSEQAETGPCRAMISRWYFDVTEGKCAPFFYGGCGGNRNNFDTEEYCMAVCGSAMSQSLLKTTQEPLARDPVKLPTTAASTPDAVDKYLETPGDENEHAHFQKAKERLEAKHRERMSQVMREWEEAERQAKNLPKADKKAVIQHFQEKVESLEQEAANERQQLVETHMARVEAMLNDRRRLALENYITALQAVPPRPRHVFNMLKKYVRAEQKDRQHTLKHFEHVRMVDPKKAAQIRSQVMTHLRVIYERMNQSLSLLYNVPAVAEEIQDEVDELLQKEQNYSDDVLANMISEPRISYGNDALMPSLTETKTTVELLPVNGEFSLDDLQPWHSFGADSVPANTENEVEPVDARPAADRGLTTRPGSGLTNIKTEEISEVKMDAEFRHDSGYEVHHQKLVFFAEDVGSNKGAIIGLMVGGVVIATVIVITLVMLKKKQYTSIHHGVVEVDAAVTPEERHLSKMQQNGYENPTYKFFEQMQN
UniProt Q9BZZ5: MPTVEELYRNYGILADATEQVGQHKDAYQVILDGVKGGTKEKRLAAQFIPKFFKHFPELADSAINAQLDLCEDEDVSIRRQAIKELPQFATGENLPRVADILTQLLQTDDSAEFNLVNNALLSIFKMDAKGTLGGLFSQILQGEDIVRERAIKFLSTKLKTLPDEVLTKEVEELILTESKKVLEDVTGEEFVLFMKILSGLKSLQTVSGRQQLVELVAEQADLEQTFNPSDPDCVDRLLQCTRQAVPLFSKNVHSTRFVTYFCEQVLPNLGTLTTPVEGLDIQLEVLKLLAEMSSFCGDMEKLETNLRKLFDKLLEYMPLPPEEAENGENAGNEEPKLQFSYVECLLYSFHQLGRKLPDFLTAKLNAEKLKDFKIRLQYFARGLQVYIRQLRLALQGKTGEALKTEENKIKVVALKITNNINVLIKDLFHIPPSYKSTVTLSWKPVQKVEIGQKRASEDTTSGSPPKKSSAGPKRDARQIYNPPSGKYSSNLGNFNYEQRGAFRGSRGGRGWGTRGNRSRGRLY
UniProt O15013: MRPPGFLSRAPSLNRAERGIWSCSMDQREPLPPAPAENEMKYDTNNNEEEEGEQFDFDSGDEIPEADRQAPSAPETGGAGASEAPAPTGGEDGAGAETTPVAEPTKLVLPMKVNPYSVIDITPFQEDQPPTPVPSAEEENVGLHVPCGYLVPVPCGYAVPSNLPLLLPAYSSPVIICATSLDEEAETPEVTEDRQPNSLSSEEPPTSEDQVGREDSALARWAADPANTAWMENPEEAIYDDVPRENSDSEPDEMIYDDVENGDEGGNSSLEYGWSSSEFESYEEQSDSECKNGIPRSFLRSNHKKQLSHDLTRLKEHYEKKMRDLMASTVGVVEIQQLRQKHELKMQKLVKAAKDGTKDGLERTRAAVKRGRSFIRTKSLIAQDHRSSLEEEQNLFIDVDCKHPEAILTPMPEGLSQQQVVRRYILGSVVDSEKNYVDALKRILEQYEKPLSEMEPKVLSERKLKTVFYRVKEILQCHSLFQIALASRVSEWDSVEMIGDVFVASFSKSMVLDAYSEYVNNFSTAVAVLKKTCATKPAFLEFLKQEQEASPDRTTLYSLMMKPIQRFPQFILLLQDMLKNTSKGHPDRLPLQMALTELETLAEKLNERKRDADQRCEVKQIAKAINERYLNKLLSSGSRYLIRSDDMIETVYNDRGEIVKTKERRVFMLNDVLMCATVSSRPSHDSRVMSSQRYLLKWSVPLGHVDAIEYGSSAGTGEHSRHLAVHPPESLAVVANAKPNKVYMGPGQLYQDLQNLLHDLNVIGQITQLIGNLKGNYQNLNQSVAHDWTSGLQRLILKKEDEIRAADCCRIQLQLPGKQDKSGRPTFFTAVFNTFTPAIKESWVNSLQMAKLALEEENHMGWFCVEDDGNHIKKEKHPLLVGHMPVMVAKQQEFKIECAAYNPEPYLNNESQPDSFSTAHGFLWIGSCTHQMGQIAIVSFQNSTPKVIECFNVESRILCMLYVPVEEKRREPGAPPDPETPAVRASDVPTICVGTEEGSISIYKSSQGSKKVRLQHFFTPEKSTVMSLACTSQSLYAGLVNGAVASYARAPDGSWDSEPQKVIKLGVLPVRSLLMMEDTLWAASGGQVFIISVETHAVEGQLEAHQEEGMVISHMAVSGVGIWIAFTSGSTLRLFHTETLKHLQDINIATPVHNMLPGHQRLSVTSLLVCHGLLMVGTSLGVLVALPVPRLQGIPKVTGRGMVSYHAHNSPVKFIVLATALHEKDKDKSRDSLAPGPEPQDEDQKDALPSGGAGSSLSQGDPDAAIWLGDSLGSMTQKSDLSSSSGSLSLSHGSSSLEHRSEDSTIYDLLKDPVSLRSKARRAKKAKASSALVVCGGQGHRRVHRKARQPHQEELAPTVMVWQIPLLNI
UniProt Q10567: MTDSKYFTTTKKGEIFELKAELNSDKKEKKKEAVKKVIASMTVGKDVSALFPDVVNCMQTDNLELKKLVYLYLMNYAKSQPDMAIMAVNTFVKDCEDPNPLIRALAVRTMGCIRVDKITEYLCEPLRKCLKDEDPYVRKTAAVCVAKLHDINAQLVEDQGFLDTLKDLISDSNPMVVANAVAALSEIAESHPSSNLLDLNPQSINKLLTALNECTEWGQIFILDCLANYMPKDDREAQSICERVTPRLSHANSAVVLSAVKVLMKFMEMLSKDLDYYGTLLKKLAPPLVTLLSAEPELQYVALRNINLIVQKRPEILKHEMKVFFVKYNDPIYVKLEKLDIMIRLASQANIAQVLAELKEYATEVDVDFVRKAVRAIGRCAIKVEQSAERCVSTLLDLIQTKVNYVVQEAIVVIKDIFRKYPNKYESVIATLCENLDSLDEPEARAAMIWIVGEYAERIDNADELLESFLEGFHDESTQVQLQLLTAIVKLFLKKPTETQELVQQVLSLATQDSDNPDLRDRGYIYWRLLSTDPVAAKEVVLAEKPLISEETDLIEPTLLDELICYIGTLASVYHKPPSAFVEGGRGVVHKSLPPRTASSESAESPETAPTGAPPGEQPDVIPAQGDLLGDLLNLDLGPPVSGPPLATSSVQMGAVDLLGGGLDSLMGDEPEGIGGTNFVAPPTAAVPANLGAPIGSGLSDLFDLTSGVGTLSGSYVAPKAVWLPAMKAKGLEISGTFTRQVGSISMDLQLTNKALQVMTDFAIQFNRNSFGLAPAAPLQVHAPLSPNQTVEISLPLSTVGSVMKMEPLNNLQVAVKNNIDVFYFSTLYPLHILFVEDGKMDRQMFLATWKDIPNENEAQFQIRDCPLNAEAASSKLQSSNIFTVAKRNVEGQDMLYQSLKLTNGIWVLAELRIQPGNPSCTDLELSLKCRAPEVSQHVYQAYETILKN
UniProt Q7Z2E3: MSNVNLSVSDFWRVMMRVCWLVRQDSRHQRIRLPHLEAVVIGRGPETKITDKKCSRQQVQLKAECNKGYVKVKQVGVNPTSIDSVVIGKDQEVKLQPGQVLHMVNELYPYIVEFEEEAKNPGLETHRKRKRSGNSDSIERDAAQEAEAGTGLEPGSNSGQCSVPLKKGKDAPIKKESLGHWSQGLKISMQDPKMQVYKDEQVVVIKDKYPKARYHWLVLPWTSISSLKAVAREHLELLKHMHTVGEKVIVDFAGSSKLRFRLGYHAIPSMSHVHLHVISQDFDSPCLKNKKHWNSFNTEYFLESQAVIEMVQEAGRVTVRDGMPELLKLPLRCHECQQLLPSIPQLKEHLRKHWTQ

Assays:
Assay in all cases: log2 fold change, soluble protein after heating vs DMSO (PISA); higher = thermal stabilisation; K562 cells, 10 uM, 30 min; active = over 0.2 and 3.5 SD of the protein, either way, in both replicates (recomputed)
[1] = compound: C1=CC=C(C=C1)[C@H](COC2=CC3=C(C=C2)NC(=O)N3)NC(=O)C4=CC=CN(C4=O)CC5=CC(=C(C=C5)F)F
Outline: (§1)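 K562 cells at 2×10^6 cells/mL were given 10 μM compound for 30 min. Aliquots then went through 3 min of heating across 48°C-58°C, were pooled, and were extracted in PBS with 0.5% NP-40 at 4°C, and the supernatant after 21,000xg for 90 min was quantified by TMTpro 16plex LC-MS/MS with channel sums equalised. Thermal stability relative to control samples, from duplicates, is given as log2 fold change.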

[2] = compound: CC1=C2C(=CC=C1)N=C(N(C2=O)C3=CC=CC=C3C)CN4C=NC5=C(N=CN=C54)N
Outline: as §1

[3] = compound: Cc1sc2c(c1C)C(c1ccc(Cl)cc1)=N[C@@H](CC(=O)OC(C)(C)C)c1nnc(C)n1-2
Outline: as §1

[4] = compound: CC1=C(SC2=C1C(=N[C@H](C3=NN=C(N32)C)CC(=O)N)C4=CC=C(C=C4)Cl)C
Outline: as §1

[5] = compound: c1ccc([C@@H]2C[C@H]2NC2CCNCC2)cc1
Outline: as §1

Target: APOBEC3G (UniProt Q9HC16)
- log2 fold change [1]: inactive: 0.089
- log2 fold change [2]: inactive: 0.436
- log2 fold change [3]: inactive: 0.147

Target: ANPEP (UniProt P15144)
- log2 fold change [4]: inactive: 0.173
- log2 fold change [3]: inactive: 0.12
- log2 fold change [5]: inactive: -0.03

Target: AP3M2 (UniProt P53677)
- log2 fold change [1]: inactive: -0.078
- log2 fold change [4]: inactive: -0.144
- log2 fold change [5]: inactive: -0.102

Target: ARHGAP22 isoform 2 (UniProt Q7Z5H3)
- log2 fold change [2]: inactive: 0.044
- log2 fold change [3]: inactive: 0.048

Target: ANAPC15 isoform 2 (UniProt P60006)
- log2 fold change [4]: inactive: -0.063
- log2 fold change [2]: inactive: 0.04
- log2 fold change [3]: inactive: -0.067
- log2 fold change [5]: inactive: -0.037

Target: APOBEC3F (UniProt Q8IUX4)
- log2 fold change [1]: inactive: -0.197
- log2 fold change [4]: inactive: 0.003
- log2 fold change [5]: inactive: -0.086

Target: APP (UniProt P05067)
- log2 fold change [3]: inactive: 0.15

Target: API5 isoform 1 (UniProt Q9BZZ5)
- log2 fold change [4]: inactive: -0.113
- log2 fold change [2]: inactive: 0.453
- log2 fold change [3]: inactive: -0.237
- log2 fold change [5]: inactive: 0.061

Target: ARHGEF10 (UniProt O15013)
- log2 fold change [1]: inactive: -0.169
- log2 fold change [2]: inactive: 0.308

Target: AP1B1 isoform 3 (UniProt Q10567)
- log2 fold change [4]: inactive: -0.031
- log2 fold change [2]: inactive: -0.235
- log2 fold change [3]: inactive: -0.062
- log2 fold change [5]: inactive: 0.165

Target: APTX (UniProt Q7Z2E3)
- log2 fold change [4]: inactive: -0.06
- log2 fold change [5]: inactive: 0.03

Target: AP2S1 (UniProt M0QZ21)
- log2 fold change [3]: inactive: -0.014

Target: APOC3 (UniProt P02656)
- log2 fold change [1]: inactive: -0.171
- log2 fold change [4]: inactive: 0.009
- log2 fold change [3]: inactive: 0.059
- log2 fold change [5]: inactive: -0.221
